Experimental data: PubChem BioAssay AID1259354 (Paczesny and Yang Labs, IUPUI and University of Michigan, 2018)
“And” between values parts separate entries of the source, which are not always exact repeats. Identical values can stand only once. In all, about 78,000 compounds went through this assay and about 1,800 (2.3%) were called active. The shares of active, inactive and inconclusive entries below differ from those in the screen. No stated cut-off is given here; in the data, active means inhibition above about 30%; inconclusive means mostly about 10% to 28%; inactive means weaker than that.

The chains behind the UniProt entries cited, without tags or fusion partners. Where a name states a change or a piece, a line headed by the entry shows the natural chain unless it says otherwise.
UniProt Q01638: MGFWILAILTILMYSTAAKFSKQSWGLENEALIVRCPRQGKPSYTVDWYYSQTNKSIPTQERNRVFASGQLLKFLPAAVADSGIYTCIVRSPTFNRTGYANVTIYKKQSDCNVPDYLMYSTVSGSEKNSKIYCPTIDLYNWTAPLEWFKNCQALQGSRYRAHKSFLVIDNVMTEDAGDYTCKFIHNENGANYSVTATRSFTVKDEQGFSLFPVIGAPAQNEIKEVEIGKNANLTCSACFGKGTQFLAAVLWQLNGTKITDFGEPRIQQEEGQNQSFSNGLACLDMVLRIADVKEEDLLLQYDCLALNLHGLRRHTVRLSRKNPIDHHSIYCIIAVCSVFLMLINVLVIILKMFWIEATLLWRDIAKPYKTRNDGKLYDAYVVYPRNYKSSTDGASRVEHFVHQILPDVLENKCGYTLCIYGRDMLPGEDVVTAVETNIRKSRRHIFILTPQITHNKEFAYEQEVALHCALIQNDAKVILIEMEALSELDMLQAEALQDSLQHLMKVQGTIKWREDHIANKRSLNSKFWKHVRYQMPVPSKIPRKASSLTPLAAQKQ

Each compound was assayed against Interleukin-1 receptor-like 1 (Homo sapiens) (UniProt Q01638) (assay: blocks human ST2 binding to IL-33, primary screen, biochemical, AlphaLISA (AID 1259354)). Conditions: AlphaLISA ST2-Fc/biotin-IL-33 interaction, 1 h; at 17 µM, stronger effect = higher value.
With `CC(C)CN1C(=O)c2ccc(C(=O)Nc3c[nH]c(=O)[nH]c3=O)cc2C1=O` the inhibition was inconclusive: 13%. `CC(=O)NCCc1cn(-c2ccc(-c3ncc(C)cn3)cc2)cn1` was tested, and the inhibition was inconclusive: 13%. In the case of `Clc1cccc(-c2cn3ccsc3n2)c1`, the inhibition is reported as “inactive”. `C=C(C)C1Cc2c(cc(O)c3c2OC2COc4cc(OC)c(OC)cc4C2(O)C3=O)O1` (configuration not stated) was tested, and the inhibition was inconclusive: 12%. In the case of `O=C(C[C@@H]1O[C@H](CNC(=O)Nc2cccc(F)c2)[C@@H](O)[C@H]1O)Nc1ccccc1`, the inhibition is reported as inconclusive: 23%. With `c1ccc(-c2nnc(-c3ccccc3)c3nonc23)cc1` the inhibition was inconclusive: 24% and inconclusive: 20%. With `O=C1CCC(=O)N1CNc1ccc(-c2ccc(NCN3C(=O)CCC3=O)cc2)cc1` the inhibition was inconclusive: 14%. `Cc1ccc(/C=c2\sc3nc(-c4ccc(OC(C)C)cc4)nn3c2=O)o1` was tested, and the inhibition was “inactive”. With `CCc1csc(CNC(=O)c2cccc(-n3cccn3)c2)n1` the inhibition was inconclusive: 15%. With `CC(C)(O)C#Cc1ccc(-c2nccn2-c2cccc(N3CCNC3=O)c2)cc1` the inhibition was inconclusive: 29%. In the case of `CN(CCc1ccccc1)C(=O)[C@@]12CNC[C@@H]1CN(S(C)(=O)=O)C2`, the inhibition is reported as inconclusive: 14%. `CC1=[N+]([O-])C(C)(C)CC(C)c2ccccc21` (configuration not stated) was tested, and the inhibition was “inactive”. In the case of `CCCn1nnc2sc3c(c2c1=O)CCC(C)C3` (configuration not stated), the inhibition is reported as inconclusive: 22%. With `COC(=O)c1ccc(CSc2nncc3ccccc23)cc1` the inhibition was “inactive”. For `COc1ccccc1C(=O)N1CCN=C1SCc1ccccc1F`, the inhibition was inconclusive: 13%. For `CCS(=O)(=O)N1CCC2(CCCN(Cc3cc(OC)ccc3F)C2)C1` (configuration not stated), the inhibition was inconclusive: 13%. For `CCN1C(=O)CC(CC(=O)N2CCN(c3cnccn3)CC2)(c2cccc(C(F)(F)F)c2)C1=O` (configuration not stated), the inhibition was inconclusive: 13%. With `CC1(C)CC(C(=O)N2CCn3c(C(N)=O)cnc3C2)CCO1` (configuration not stated) the inhibition was inconclusive: 14%. For `O=C(c1cccs1)N1CCN(c2ccc([N+](=O)[O-])c(NCCc3ccccc3)c2)CC1`, the inhibition was inconclusive: 29%. For `O=c1[nH]c(-c2ccccc2)cn1-c1ccc(Br)cc1`, the inhibition was inconclusive: 14%. `CC(c1ccccc1)n1cnnc1CCn1cccn1` (configuration not stated) was tested, and the inhibition was inconclusive: 10%. For `COc1ccccc1S(=O)(=O)Cc1ccc(C(=O)N2CCOCC2)o1`, the inhibition was inconclusive: 13%. In the case of `COC(=O)[C@@H](NC1CCN(c2ccc(NC(=O)Cc3cccc(F)c3)cc2)CC1)C(C)C`, the inhibition is reported as inconclusive: 17%. With `Cc1ccc(C(=O)O)cc1NS(=O)(=O)c1ccc2c(c1)c(=O)n(C)c(=O)n2C` the inhibition was “inactive”. With `CSc1ccc(S(=O)(=O)Nc2ccc(C(=O)NCc3ccccc3)cc2)cc1` the inhibition was inconclusive: 22%. With `O=C1c2ccccc2S(=O)(=O)N1CCCCOc1ccc(Cl)cc1` the inhibition was “inactive”. With `CCOc1ccc(C2CC(c3cccc(OC)c3)Nc3ncnn32)cc1` (configuration not stated) the inhibition was inconclusive: 10%. For `COc1cc(C=O)ccc1OCCOc1c(Cl)cccc1Cl`, the inhibition was “inactive”. For `CS(=O)(=O)N1Cc2ccccc2CC1C(=O)Nc1ccccc1F` (configuration not stated), the inhibition was “inactive”. `O=C(Cn1cnc2c(oc3ccccc32)c1=O)Nc1ccc(F)cc1` was tested, and the inhibition was “inactive”. With `CCOc1ccc(S(=O)(=O)N2CCSC2c2ccc(OC)c(OC)c2)cc1` (configuration not stated) the inhibition was inconclusive: 12%. With `O=C1CC(c2cccs2)CC2=C1C(c1ccc(Cl)s1)Nc1ccccc1N2` (configuration not stated) the inhibition was inconclusive: 22%. For `CC(NC(=O)c1nn(CCO)c2c1CN(Cc1nccs1)CC2)c1ccccc1` (configuration not stated), the inhibition was “inactive”. In the case of `Cc1c(C(=O)Nc2ccc3c(c2)OCO3)sc2ncnc(N3CCOCC3)c12`, the inhibition is reported as “inactive”. In the case of `Cc1cccc(-c2nsc(SCC(=O)N3CCc4ccccc43)n2)c1`, the inhibition is reported as “inactive”. In the case of `CN(Cc1ccccc1-n1cccn1)C(=O)c1cnn2ccn(C)c12`, the inhibition is reported as inconclusive: 12%. `COc1ccc(-c2nnc([C@H]3CCN(Cc4ccccc4Cl)C3)o2)cc1` was tested, and the inhibition was inconclusive: 20%. For `CCC(C)NC(=O)c1nn2c(c1Cl)NC(c1ccc(OC)cc1)CC2C(F)(F)F` (configuration not stated), the inhibition was inconclusive: 14%. In the case of `Cc1ccc2[nH]nc(C(=O)N3CCCC4(C3)C(=O)N(C)c3ccccc34)c2c1` (configuration not stated), the inhibition is reported as “inactive”. For `CCOC(=O)CC1CCCCN1C(=O)Nc1ccccc1F` (configuration not stated), the inhibition was inconclusive: 12%. With `C/C(=C\c1nsc(Nc2ccc(Cl)cc2)n1)NCc1ccc2c(c1)OCO2` the inhibition was “inactive”. In the case of `NC(=O)c1cc(NC(=O)c2ccc([N+](=O)[O-])cc2)ccc1N1CCOCC1`, the inhibition is reported as inconclusive: 13%. With `CC(C)(C)N(CC#CC(O)(c1ccccc1)c1ccccc1)CCO` the inhibition was inconclusive: 17%. With `O=Cc1ccc(OCc2ccc([N+](=O)[O-])cc2)cc1` the inhibition was inconclusive: 20%. In the case of `COc1ccc(C(=O)Nc2ccccc2[N+](=O)[O-])cc1S(=O)(=O)N1CCOCC1`, the inhibition is reported as inconclusive: 12%. In the case of `CC(=O)c1cccc(NC(=O)CN(c2ccc(I)cc2)S(C)(=O)=O)c1`, the inhibition is reported as “inactive”. For `C=CCOc1ccc(/C=C2/C(=O)NN(c3ccc(C)c(Cl)c3)C2=O)cc1OC`, the inhibition was inconclusive: 21%. `O=C(NC1CCCc2ccccc21)c1ccc(NC(=O)C2CCCO2)cc1` (configuration not stated) was tested, and the inhibition was inconclusive: 14%. In the case of `COc1ccccc1N1CCN(S(=O)(=O)c2ccc(F)cc2)CC1`, the inhibition is reported as inconclusive: 10%. In the case of `COc1ccc(-c2nc(CN(Cc3c(C)nn(C)c3C)C3CC3)c(C)o2)c(C)c1C`, the inhibition is reported as “inactive”. In the case of `Fc1ccc(CO/N=C2/CCCc3nonc32)c(Cl)c1`, the inhibition is reported as inconclusive: 12%. For `COc1cc(NC(=O)N2C[C@@H]3C[C@H](C2)c2ccc(NS(=O)(=O)c4ccc(Cl)cc4)c(=O)n2C3)cc(OC)c1`, the inhibition was inconclusive: 15%. `CC(O)c1ccc2c(c1)C1c3ccccc3C2c2ccccc21` (configuration not stated) was tested, and the inhibition was “inactive”. `Cc1ccc(OCC(O)CN2CCN(c3ccccc3)CC2)c(C)c1` (configuration not stated) was tested, and the inhibition was inconclusive: 19%. With `COc1ccc(C2CC(=O)NC(SC)=C2C#N)cc1OCc1ccccc1` (configuration not stated) the inhibition was “inactive”. In the case of `CC1(C)CC(NCN(C2CC(C)(C)NC(C)(C)C2)C2CC(C)(C)NC(C)(C)C2)CC(C)(C)N1`, the inhibition is reported as “inactive”. With `C[C@H]1[C@@H]2[C@@H](O)[C@H]([C@H](C)C(=O)NC3CCCC3)CC[C@@]2(C)CC[C@@H]1NC(=O)c1cncnc1` the inhibition was inconclusive: 12%. In the case of `O=C(Nc1ccc(F)cc1F)c1noc2c1CCC2`, the inhibition is reported as inconclusive: 11%. In the case of `CCOC(=O)CC1CCCCN1Cc1nc(Cc2ccccc2F)no1` (configuration not stated), the inhibition is reported as “inactive”. `CCCCOC(=O)C1=C(C)Nc2ncnn2C1c1cc(Br)ccc1F` (configuration not stated) was tested, and the inhibition was “inactive”. For `C=CCNC(=O)c1cc2c(=O)n3ccccc3nc2n(C(C)C)c1=N`, the inhibition was inconclusive: 28%. For `O=[N+]([O-])c1cc(C(F)(F)F)ccc1N1CCN(c2ccc([N+](=O)[O-])c3cccnc23)CC1`, the inhibition was active: 45%. In the case of `C=CCSc1nnc2c(n1)[nH]c1ccccc12`, the inhibition is reported as inconclusive: 22%. In the case of `COc1cc(S(=O)(=O)N2CCN(c3nc(C)cc(N4CCCCC4)n3)CC2)c(C)cc1C`, the inhibition is reported as inconclusive: 18%. `[O-][n+]1onc2c(-c3ccccc3)nnc(-c3ccccc3)c21` was tested, and the inhibition was inconclusive: 21%. For `Cn1ccnc1Sc1nc2c(c(=O)n(C)c(=O)n2C)n1Cc1ccc(Cl)c(Cl)c1`, the inhibition was “inactive”. In the case of `CN1CCC2(CC1)CN(C(=O)c1ccc3[nH]ccc3c1)CCN2C`, the inhibition is reported as “inactive”. In the case of `CC1=C[C@@H](CNC(=O)c2ccco2)[C@H](C(C)C)C[C@H]1CC(=O)N(C)Cc1ccccc1`, the inhibition is reported as inconclusive: 12%. In the case of `Cc1ccc(C2CC(=O)C3=C(C2)Nc2ccccc2NC3c2cc(F)ccc2F)cc1` (configuration not stated), the inhibition is reported as inconclusive: 14%. `CN(C)c1ccc(NC(=O)CC2SC(N)=NC2=O)cc1` (configuration not stated) was tested, and the inhibition was inconclusive: 29%. For `CCn1c(CC2CCN(CCc3ccccc3)CC2)n[nH]c1=O`, the inhibition was inconclusive: 16%. `COc1ccccc1OCC(=O)N1CCc2c(cnc(C)c2CNC(=O)C(OC)c2ccccc2)C1` (configuration not stated) was tested, and the inhibition was inconclusive: 14%. For `CCc1ccccc1NC(=O)COc1ccccc1`, the inhibition was “inactive”. In the case of `CC1=C(C(=O)Nc2nc3ccccc3s2)C(c2ccc([N+](=O)[O-])cc2)C2=C(CCCC2=O)N1` (configuration not stated), the inhibition is reported as “inactive”. In the case of `NC(=O)c1ccc[n+](CC(=O)c2cccc([N+](=O)[O-])c2)c1`, the inhibition is reported as inconclusive: 10%. For `CC1=C(C(=O)Nc2cc(C)ccn2)C(c2ccc(F)cc2)C2=C(CCCC2=O)N1` (configuration not stated), the inhibition was “inactive”. In the case of `CN(C)S(=O)(=O)c1ccc2c(c1)/C(=C/c1cc3c([nH]1)CCCC3)C(=O)N2`, the inhibition is reported as inconclusive: 29%. For `O=C(c1cccc(C(=O)N2CCc3ccccc32)n1)N1CCc2ccccc21`, the inhibition was inconclusive: 28%. For `Cc1cc(C(=O)Nc2cnn(Cc3ccc(F)cc3)c2)no1`, the inhibition was inconclusive: 11%. `CC(C)(C)c1ccc(Cn2c(=N)n(CC(N)=O)c3ccccc32)cc1` was tested, and the inhibition was “inactive”. `CC(C)Cc1cn(C2CCN(C3Cc4ccccc4C3)CC2)nn1` was tested, and the inhibition was inconclusive: 18%. In the case of `Cc1ccc(-n2nc(C)c([C@H]3C=C[C@@H](O)C3)c2C)cc1Cl`, the inhibition is reported as inconclusive: 10%. `CCOC(=O)C1C(=O)C=C(c2cccs2)CC1c1ccc(F)cc1` (configuration not stated) was tested, and the inhibition was inconclusive: 20%. For `Clc1cccc(Cl)c1NC1=NCCN1`, the inhibition was inconclusive: 23%. With `CSCCCNC(=O)CC1C(=O)NCCN1Cc1cccc(C(F)(F)F)c1` (configuration not stated) the inhibition was inconclusive: 10%. `Cc1oc2c(C)c(OC(=O)N3CCOCC3)ccc2c(=O)c1-c1nc2ccccc2s1` was tested, and the inhibition was “inactive”. In the case of `Cn1c(CCC(=O)N2CCNCC2C(=O)NC2CC2)nc2cccnc21` (configuration not stated), the inhibition is reported as inconclusive: 12%. `Cc1nc2c(C(=O)N(C)Cc3ccccc3)c[nH]n2c(=O)c1Cc1ccccc1F` was tested, and the inhibition was “inactive”. For `CCOC(=O)c1[nH]c2ccccc2c1NC(=O)c1cccs1`, the inhibition was inconclusive: 13%. `CCCn1ncc(CN2CCCC(N3CCN(c4ccc(OC)cc4)CC3)C2)c1C` (configuration not stated) was tested, and the inhibition was inconclusive: 19%. `Cc1ccc(S(=O)(=O)N2CCC(C(=O)N3CCOCC3)CC2)cc1` was tested, and the inhibition was “inactive”. In the case of `O=C(NCCc1ccccc1F)N1CCCCC1CCN1CCOCC1` (configuration not stated), the inhibition is reported as inconclusive: 11%.
